# Experimental data: PubChem BioAssay AID1508597 (Cure First, 2020)
# Test: 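Genes whose silencing sensitises or protects ovarian cancer cells against rucaparib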 (primary screen)
# Cells: human ovarian carcinoma lines grown from tumours: OCI-P5x (papillary serous) and OCI-C5x (clear cell)
# Knock-down reagent: siRNA pool against human genes, 1.25 pmol siRNA per well
# Timing: 72 h or 96 h, depending on the cell culture
# Treatment: rucaparib 20 µM (about IC30) or vehicle, present until read-out
# Rucaparib or vehicle: Vehicle
# Cell line: OCI-C5x (clear cell)
# Measured: 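ATP luminescence measured at 72 or 96 h according to the culture, then normalised and expressed as percent viability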
# Scale: viability, normalised: higher = more viable cells remaining
# Rule for the call: 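a well counts as a hit if its normalised viability is under 80 percent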
# Calls: active = viability under 80%; inactive = viability 80% or more
# This is a random part of the about 2,100 reagents, in one setting of the screen. 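Calls flag viability under 80% in either arm, not effects specific to rucaparib; the reference for percent is not stated.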 Entries without a mark were called inactive. A reagent listed more than once was tested more than once; the source does not tell the runs apart. Not stated in the record: the 100% reference.
target,technical replicate,"viability, normalised (%)"
NR3C1,1,31.5 (active)
NR3C1,2,34.4 (active)
NR3C1,3,40.2 (active)
TBXT,1,44 (active)
TBXT,2,43.1 (active)
TBXT,3,33.4 (active)
POLR2E,1,70.9 (active)
POLR2E,2,66.8 (active)
POLR2E,3,71.2 (active)
PTTG3P,1,58.4 (active)
PTTG3P,2,54.1 (active)
PTTG3P,3,78.3 (active)
PRKX,1,77.1 (active)
PRKX,2,68.9 (active)
PRKX,3,64.3 (active)
CDX4,1,88.4
CDX4,2,89.9
CDX4,3,73.1 (active)
MACROD2,1,44.6 (active)
MACROD2,2,67.4 (active)
MACROD2,3,75.3 (active)
EIF4A2,1,49.1 (active)
EIF4A2,2,42.1 (active)
EIF4A2,3,50 (active)
NHERF1,1,22.5 (active)
NHERF1,2,17.1 (active)
NHERF1,3,24.8 (active)
ING5,1,80.6
ING5,2,35 (active)
ING5,3,80.4
ING4,1,43.1 (active)
ING4,2,41.6 (active)
ING4,3,82.8
ACTR5,1,45.4 (active)
ACTR5,2,40 (active)
ACTR5,3,30.9 (active)
KDM4B,1,53.3 (active)
KDM4B,2,41.5 (active)
KDM4B,3,58.1 (active)
ATOH1,1,44.6 (active)
ATOH1,2,65 (active)
ATOH1,3,43.2 (active)
SOX14,1,49.7 (active)
SOX14,2,34.2 (active)
SOX14,3,44.6 (active)
TPD52,1,57.5 (active)
TPD52,2,32.5 (active)
TPD52,3,41.1 (active)
HASPIN,1,52.6 (active)
HASPIN,1,52.4 (active)
HASPIN,1,55.4 (active)
HASPIN,2,41.5 (active)
HASPIN,2,40.7 (active)
HASPIN,2,55 (active)
HASPIN,3,47.1 (active)
HASPIN,3,51.3 (active)
HASPIN,3,61.2 (active)

Entries listed so far whose target name begins with E or e:
target,technical replicate,"viability, normalised (%)"
EIF4A2,1,49.1 (active)
EIF4A2,2,42.1 (active)
EIF4A2,3,50 (active)
